Experiment [1] deals with bovine PD-1 on bovine PD-1 expressing cells (CHO-DG44, pCMV-Tag1-boPD-1) (bovine). As to the kind of experiment: flow cytometry on bovine PD-1 expressing cells, 0.001 to 100 µg/ml, detection with Alexa Fluor 647-labeled anti-bovine IgG (H+L) goat F(ab')2.
Experiment [2] shares this target. As to the kind of experiment: flow cytometry on bovine PD-1 expressing cells. In general terms: A flow cytometer gives signals particle by particle.
The target of experiment [3] is bovine PD-L1 on bovine PD-L1 expressing cells (CHO-DG44, pEGFP-N2-boPD-L1) (bovine). As to the kind of experiment: flow cytometry on bovine PD-L1 expressing cells, detection with APC-labeled anti-rat Ig goat antibody.
For experiment [4] the target is unchanged. As to the kind of experiment: blocking assay by flow cytometry: bovine PD-L1 expressing cells pre-incubated with the antibody, then biotinylated bovine PD-1-Ig (2 µg/ml), detection with APC-streptavidin; blocked ligand: bovine PD-1-Ig.
Experiment [5] shares this target. As to the kind of experiment: flow cytometry on bovine PD-L1 expressing cells.

These are yes or no findings as the source states them, for the method shown. A result given as binding can be weak or reduced; the word gives no strength.

B1: rat-bovine chimeric anti-bovine PD-1 antibody ch5D2 (mutated bovine IgG1, IgG1 ADCC-) (antibody)
heavy: QVQLKETGPGLVQPTQTLSITCTVSGFSLTSYYIQWVRQTPGKGLEWMGFIRSGGSTEYNSEFKSRLSINRDTSKNQVFLKMNSLKTEDTGVYYCARTSSGYEGGFDYWGQGVMVTVSSASTTAPKVYPLSSCCGDKSSSTVTLGCLVSSYMPEPVTVTWNSGALKSGVHTFPAVLQSSGLYSLSSMVTVPGSTSGQTFTCNVAHPASSTKVDKAVDPTCKPSPCDCCPPPPVAGPSVFIFPPKPKDTLTISGTPEVTCVVVDVGHDDPEVKFSWFVDDVEVNTATTKPREEQFNSTYRVVSALRIQHQDWTGGKEFKCKVHNEGLPSSIVRTISRTKGPAREPQVYVLAPPQEELSKSTVSLTCMVTSFYPDYIAVEWQRNGQPESEDKYGTTPPQLDADSSYFLYSKLRVDRNSWQEGDTYTCVVMHEALHNHYTQKSTSKSAGK
light: DVVLTQTPVSLSVTLGDQASISCRSSQSLEYSDGYTYLEWYLQKPGQSPQLLIYGVSNRFSGVPDRFIGSGSGTDFTLKISRVEPEDLGVYYCFQATHDPDTFGAGTKLELKQPKSPPSVTLFPPSTEELNGNKATLVCLISDFYPGSVTVVWKADGSTITRNVETTRASKQSNSKYAASSYLSLTSSDWKSKGSYSCEVTHEGSTVTKTVKPSECS
As for B1, the binding result in experiment [1] and in experiment [2] was “binds” each time.

B2: rat anti-bovine PD-L1 monoclonal antibody 4G12 (antibody, V domains shown)
VH: QVQLQQSGAELVKPGSSVKISCKASGYTFTSNFMHWVKQQPGNGLEWIGWIYPEYGNTKYNQKFDGKATLTADKSSSTAYMQLSSLTSEDSAVYFCASEEAVISLVYWGQGTLVTVSS
VL: DIAITQSPSSVAVSVGETVTLSCKSSQSLLYSENQKDYLGWYQQKPGQTPKPLIYWATNRHTGVPDRFTGSGSGTDFTLIISSVQAEDLADYYCGQYLVYPFTFGPGTKLELK
Turning to B2, the binding result in experiment [3], in experiment [4] and in experiment [5] was “binds” each time.

The values above are taken from patent US20250066483A1.
